From article PMC2989437 come the findings set out here.

By UniProt entry, the sequences of proteins in these tests, tags left out.
UniProt O14157: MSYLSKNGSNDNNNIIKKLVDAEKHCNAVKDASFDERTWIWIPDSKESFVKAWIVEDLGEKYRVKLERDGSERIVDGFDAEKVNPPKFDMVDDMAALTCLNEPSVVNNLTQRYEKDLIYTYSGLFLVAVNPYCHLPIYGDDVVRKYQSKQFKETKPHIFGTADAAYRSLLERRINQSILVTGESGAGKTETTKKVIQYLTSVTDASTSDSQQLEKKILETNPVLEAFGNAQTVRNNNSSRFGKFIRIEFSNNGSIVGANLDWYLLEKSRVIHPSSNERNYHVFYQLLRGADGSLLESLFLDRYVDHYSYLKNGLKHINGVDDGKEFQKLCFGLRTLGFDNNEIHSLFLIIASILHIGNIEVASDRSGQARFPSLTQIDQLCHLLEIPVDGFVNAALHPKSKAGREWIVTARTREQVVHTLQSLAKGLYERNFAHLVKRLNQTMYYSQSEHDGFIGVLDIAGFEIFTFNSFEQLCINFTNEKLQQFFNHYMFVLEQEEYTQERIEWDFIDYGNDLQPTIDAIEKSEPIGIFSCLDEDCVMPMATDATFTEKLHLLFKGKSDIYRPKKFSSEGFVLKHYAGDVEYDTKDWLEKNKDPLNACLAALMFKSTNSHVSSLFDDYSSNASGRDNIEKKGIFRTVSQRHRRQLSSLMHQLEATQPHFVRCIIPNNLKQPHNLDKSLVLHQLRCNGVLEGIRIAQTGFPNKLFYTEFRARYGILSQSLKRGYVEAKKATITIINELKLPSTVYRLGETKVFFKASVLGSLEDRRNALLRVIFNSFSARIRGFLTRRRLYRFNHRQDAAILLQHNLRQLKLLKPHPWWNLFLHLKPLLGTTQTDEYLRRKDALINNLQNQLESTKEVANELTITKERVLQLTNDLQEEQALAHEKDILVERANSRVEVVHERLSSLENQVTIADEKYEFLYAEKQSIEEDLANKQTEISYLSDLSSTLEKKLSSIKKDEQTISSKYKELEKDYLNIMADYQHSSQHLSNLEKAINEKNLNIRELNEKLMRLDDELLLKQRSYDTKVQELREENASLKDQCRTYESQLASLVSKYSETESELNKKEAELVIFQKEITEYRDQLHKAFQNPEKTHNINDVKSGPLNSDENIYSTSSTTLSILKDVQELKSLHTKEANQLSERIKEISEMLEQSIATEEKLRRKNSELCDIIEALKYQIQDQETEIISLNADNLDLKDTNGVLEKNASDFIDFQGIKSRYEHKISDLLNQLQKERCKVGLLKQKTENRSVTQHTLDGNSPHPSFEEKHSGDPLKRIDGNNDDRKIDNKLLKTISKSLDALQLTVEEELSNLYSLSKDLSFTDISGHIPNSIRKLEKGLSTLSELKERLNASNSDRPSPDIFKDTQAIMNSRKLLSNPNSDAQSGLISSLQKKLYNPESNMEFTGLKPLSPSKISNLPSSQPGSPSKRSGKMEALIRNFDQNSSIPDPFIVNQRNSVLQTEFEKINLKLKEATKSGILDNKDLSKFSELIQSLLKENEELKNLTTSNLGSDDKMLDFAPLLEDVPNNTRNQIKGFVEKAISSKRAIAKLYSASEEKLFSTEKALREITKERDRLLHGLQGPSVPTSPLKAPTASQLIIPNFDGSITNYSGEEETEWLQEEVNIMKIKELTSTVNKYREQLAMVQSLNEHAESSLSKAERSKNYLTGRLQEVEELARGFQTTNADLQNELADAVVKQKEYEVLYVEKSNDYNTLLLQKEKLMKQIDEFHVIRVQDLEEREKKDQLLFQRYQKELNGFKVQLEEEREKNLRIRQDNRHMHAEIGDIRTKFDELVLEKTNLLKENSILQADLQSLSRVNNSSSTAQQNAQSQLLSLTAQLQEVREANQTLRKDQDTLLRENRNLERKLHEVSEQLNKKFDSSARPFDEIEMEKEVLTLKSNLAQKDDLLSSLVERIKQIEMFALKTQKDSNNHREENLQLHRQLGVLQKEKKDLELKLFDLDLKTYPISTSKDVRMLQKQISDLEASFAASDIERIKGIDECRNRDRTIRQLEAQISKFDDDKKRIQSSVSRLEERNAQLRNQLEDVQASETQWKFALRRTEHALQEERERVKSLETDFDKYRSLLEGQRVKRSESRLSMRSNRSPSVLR

The experiment addresses Myp2-YFP (Schizosaccharomyces pombe) (UniProt O14157). As to the kind of experiment: co-IP; Mto1 co-immunoprecipitated with Myp2-YFP in fission yeast cell extracts.

Results are given in words; binding and its absence hold for the method and conditions named. Binding seen in cells or lysates may run through a third protein. Some entries that bind do so weakly or less than the wild type.

B1: Mto1 (protein, UniProt O94488 1-1115)
chain: MEENSSELDSNNFNVLVDNLAGLSLTDEEVRRILSPRKEGSRQLPSSTSKDEDSEEASHKYDFEIDRDSLKSDSGSPRLHQNATAPTSSTPLQSPDESVNKLNSEDEEGNSSVAPFFLDTTNFDRLNDNITTDDEQLSPVLTANQGFQSQEQYEEDSYNNYDYTSDPSSPNYISSSLDQLPHLDDEDDLQLTPIKEERNYLHSQDAPTTNALSKKISDILIPASAMKDLKDRKNALAKEFEESQPGSSLTLKEQANVIDNLRKEVFGLKLKCYFLYDQLNKFHDQEVQDIMKQNIDLKTLTMELQRAVAGYEKKISGLESRIKPDQSFNLSTPSPAPSNLITLQSRYSQALSELETTKRAFAALRKEKSKKTNYSVGAYNEDRNVLSNMLDNERREKEALLQELESLRVQLSKKVPMPAKNTDERVIETLQRSNELLRMDISMQNEALLLRKQENDRLVKQVEELTVALNSGKMNAIVEAESSKNELWDSMMVSRMKTQEQSIELTRLYKQLQDIEEDYENKLMRMEQQWREDVDQLQEYVEEITQELQDTKEVLSKSSKESDDYEEVVGKLRTEAEREIEKFEKTIRENEESISLFKEEVEKLTDEITQLSERYNDKCHEFDELQKRLQTLEEENNKAKEDSTSKTSNLLEQLKMTEAEVDSLRKENEENKQVIALKESELVKSNDNKLLLNEQIESLNDQLSQLKTEMESVTTSKESLADYLSNLKERHNDELDSLNKKLREFEGILSSNSSLKSEIEERNNQYVTLRENFDSLQNAIMETFDKQVTHCSVNHLVQQIRKLKDENKKDQSGTDKLMKKIYHCEQSLKEKTNSLETLVSEKKELKNLLDAERRSKKAIQLELENLSSQAFRRNLSGSSSPSERSQSRELKLLQASEKRLKEQVEERNSLIKNIVTRFTQLNTGSKPVNTNVEALTTISSMNQAVNMNFRELDKSIQEFKRKCQSMEREFKTELRKLDGVLEARSKRLSQLEERVKLLGAGSTSSIPNSPRASKRVSLDSEDKKLVPASPDKSAVQRGITALKRDAEGMSHIWQLRLREMEFQLKAEQEGRKRDKLGARERLQDLIRQNRSLSRQIKTDKESNSRSPSISSQEHK
As to B1, the binding result was “binds”.
